Assay results: publication PMC5085252

By UniProt entry, the sequences of proteins in these tests, tags left out. Where a name states a change or a piece, a line headed by the entry shows the natural chain unless it says otherwise.
UniProt Q94F49: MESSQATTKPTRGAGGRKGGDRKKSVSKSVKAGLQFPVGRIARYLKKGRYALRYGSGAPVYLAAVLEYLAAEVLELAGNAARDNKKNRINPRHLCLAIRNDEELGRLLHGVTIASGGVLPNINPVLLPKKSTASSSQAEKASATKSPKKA
UniProt O81826: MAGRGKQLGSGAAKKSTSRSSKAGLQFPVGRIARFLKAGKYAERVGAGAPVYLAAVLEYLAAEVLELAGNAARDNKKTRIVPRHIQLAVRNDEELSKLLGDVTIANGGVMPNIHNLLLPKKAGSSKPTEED
UniProt Q9LHQ5: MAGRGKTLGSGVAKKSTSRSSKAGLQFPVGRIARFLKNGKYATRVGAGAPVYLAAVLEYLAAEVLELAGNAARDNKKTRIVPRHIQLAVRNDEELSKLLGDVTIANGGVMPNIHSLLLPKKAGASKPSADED
UniProt Q9C944: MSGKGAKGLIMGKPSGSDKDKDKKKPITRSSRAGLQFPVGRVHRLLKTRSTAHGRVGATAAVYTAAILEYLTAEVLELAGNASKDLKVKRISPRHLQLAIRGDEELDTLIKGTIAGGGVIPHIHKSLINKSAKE
UniProt O04848: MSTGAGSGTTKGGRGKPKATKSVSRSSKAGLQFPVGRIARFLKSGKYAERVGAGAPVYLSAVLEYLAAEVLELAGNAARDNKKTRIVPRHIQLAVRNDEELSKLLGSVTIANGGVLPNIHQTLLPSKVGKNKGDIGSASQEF
UniProt O23628: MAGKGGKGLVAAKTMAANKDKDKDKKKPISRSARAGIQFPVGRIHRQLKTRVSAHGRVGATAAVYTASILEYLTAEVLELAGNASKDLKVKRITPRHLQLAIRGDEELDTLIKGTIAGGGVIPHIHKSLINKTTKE
UniProt Q9S9K7: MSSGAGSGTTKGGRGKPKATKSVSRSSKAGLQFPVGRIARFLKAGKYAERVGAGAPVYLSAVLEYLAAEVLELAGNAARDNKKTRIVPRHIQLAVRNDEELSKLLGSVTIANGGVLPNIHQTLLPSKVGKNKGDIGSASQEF
UniProt Q9FJE8: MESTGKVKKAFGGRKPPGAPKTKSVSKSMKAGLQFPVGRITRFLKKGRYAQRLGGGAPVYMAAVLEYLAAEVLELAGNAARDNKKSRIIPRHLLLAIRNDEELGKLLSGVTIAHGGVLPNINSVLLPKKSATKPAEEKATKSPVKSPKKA
UniProt Q9LD28: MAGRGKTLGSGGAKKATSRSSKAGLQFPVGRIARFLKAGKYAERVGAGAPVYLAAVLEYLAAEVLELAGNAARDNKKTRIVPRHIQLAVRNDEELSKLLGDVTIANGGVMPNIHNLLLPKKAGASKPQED
UniProt Q9C681: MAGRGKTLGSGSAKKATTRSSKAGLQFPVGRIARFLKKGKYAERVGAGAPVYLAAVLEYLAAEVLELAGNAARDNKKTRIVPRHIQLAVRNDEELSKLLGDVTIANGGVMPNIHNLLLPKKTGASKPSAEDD

T1: GFP-THAL (N-terminal GFP-tagged Thallo) (Arabidopsis thaliana) (UniProt Q8L3P4)
T1 sequence: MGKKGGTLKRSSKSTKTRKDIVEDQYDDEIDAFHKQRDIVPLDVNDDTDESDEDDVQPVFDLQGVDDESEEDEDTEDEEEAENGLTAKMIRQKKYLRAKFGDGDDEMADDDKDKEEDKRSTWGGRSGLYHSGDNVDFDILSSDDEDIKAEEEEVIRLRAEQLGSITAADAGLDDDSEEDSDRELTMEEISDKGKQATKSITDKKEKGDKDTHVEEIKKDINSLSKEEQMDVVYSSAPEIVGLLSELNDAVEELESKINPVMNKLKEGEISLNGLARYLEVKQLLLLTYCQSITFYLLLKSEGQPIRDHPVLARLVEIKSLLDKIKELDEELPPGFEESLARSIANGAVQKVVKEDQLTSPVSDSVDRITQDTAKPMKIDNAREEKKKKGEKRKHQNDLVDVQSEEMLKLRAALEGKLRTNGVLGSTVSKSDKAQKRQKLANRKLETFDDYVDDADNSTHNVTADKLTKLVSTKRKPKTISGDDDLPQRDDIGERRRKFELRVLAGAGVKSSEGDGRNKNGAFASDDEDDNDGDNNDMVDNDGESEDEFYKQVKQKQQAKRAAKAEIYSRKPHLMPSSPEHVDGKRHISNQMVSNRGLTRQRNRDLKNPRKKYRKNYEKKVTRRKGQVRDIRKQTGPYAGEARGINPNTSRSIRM

B1: DEAD box RNA helicase RH3 (EMB1138) (protein, UniProt Q8L7S8 61-748)
chain: AVATPNSVLSEEAFKSLGLSDHDEYDLDGDNNNVEADDGEELAISKLSLPQRLEESLEKRGITHLFPIQRAVLVPALQGRDIIARAKTGTGKTLAFGIPIIKRLTEEAGDYTAFRRSGRLPKFLVLAPTRELAKQVEKEIKESAPYLSTVCVYGGVSYTIQQSALTRGVDVVVGTPGRIIDLIEGRSLKLGEVEYLVLDEADQMLAVGFEEAVESILENLPTKRQSMLFSATMPTWVKKLARKYLDNPLNIDLVGDQDEKLAEGIKLYAIATTSTSKRTILSDLITVYAKGGKTIVFTQTKRDADEVSLALSNSIATEALHGDISQHQRERTLNAFRQGKFTVLVATDVASRGLDIPNVDLVIHYELPNDPETFVHRSGRTGRAGKEGSAILMHTSSQKRTVRSLERDVGCHFEFISPPTVGDLLESSADQVVATLNGVHPDSIKFFSATAQKLYEEKGTDALAAALAHLSGFSQPPSSRSLLSHEKGWVTLQLIRDPTNARGFLSARSVTGFLSDLYRTAADEVGKIFLIADDRIQGAVFDLPEEIAKELLEKDVPEGNSLSMITKLPPLQDDGPSSDNYGRFSSRDRMPRGGGGSRGSRGGRGGSSRGRDSWGGDDDRGSRRSSGGGSSWSRGGSSSRGSSDDWLIGGRSSSSSRAPSRERSFGGSCFICGKSGHRATDCPDKRGF

Each molecule was assayed against T1, GFP-THAL (N-terminal GFP-tagged Thallo) (Arabidopsis thaliana) (assay: affinity purification with mass spectrometry; immunoprecipitation of GFP-THAL from total proteins of 8-d-old rescued THALpro::GFP-THAL/thal-2 seedlings; proteins also obtained in the WT sample eliminated).

| Molecule | binding |
| --- | --- |
| histone 2A protein H2A.W.7 (from UniProt Q94F49 1-150) | binds |
| histone 2A protein H2A.2 (from UniProt O81826 1-131) | binds |
| histone 2A protein H2A.13 (from UniProt Q9LHQ5 1-132) | binds |
| histone 2A protein H2A.Z.9 (from UniProt Q9C944 1-134) | binds |
| histone 2A protein H2A.X.5 (from UniProt O04848 1-142) | binds |
| histone 2A protein H2A.Z.11 (from UniProt O23628 1-136) | binds |
| histone 2A protein H2A.X.3 (from UniProt Q9S9K7 1-142) | binds |
| histone 2A protein H2A.W.6 (from UniProt Q9FJE8 1-150) | binds |
| histone 2A protein H2A.1 (from UniProt Q9LD28 1-130) | binds |
| histone 2A protein H2A.10 (from UniProt Q9C681 1-132) | binds |
| B1 | binds |

No constants are given. Whether binding was seen depends on the method and setting. Binding seen in cells or lysates may run through a third protein. A yes stands for co-enrichment or nearness to the bait. Other partners may have been found. Sequences can lack the tags named with a protein.
